Reference: article PMC6620328
No constants are given. Whether binding was seen depends on the method and setting. In cells and extracts the contact can be indirect. Some entries that bind do so weakly or less than the wild type.

Amino acid sequences for entries named in this document (tags omitted). A change or cut given only in a name is not applied to a line headed by its entry.
UniProt P03915: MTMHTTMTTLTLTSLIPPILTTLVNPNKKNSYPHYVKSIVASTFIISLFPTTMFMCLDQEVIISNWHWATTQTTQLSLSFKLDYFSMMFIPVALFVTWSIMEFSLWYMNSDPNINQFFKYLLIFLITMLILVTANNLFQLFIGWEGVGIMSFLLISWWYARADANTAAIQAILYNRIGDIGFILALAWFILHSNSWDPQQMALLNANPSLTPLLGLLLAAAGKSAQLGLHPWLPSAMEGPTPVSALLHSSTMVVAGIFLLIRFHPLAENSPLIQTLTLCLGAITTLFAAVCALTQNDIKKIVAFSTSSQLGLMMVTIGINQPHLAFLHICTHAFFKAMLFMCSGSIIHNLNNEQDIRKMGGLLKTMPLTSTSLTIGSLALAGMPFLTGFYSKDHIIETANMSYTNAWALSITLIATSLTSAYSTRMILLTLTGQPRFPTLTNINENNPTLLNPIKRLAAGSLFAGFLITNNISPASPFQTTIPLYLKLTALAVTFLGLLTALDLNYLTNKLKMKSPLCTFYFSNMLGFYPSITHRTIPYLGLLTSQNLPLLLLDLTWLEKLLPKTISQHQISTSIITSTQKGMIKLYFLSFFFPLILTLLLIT
UniProt P03905: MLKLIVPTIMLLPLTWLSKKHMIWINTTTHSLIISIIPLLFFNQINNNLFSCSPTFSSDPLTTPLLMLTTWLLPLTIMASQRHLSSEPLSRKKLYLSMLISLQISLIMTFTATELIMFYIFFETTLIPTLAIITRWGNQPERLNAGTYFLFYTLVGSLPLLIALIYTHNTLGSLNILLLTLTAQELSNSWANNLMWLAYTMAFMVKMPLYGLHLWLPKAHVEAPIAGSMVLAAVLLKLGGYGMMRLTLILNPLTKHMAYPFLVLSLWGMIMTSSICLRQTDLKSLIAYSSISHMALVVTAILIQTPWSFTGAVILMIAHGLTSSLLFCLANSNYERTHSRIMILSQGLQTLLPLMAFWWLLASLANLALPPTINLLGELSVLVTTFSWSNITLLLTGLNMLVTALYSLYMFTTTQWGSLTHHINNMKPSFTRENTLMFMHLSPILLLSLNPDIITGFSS
UniProt O95298: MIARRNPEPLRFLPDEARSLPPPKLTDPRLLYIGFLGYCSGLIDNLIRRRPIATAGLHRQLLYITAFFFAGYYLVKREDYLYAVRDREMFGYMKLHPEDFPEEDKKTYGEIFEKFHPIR
UniProt P03901: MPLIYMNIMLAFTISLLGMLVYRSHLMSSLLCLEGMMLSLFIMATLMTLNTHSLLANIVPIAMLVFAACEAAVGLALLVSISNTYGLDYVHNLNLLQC
UniProt P03891: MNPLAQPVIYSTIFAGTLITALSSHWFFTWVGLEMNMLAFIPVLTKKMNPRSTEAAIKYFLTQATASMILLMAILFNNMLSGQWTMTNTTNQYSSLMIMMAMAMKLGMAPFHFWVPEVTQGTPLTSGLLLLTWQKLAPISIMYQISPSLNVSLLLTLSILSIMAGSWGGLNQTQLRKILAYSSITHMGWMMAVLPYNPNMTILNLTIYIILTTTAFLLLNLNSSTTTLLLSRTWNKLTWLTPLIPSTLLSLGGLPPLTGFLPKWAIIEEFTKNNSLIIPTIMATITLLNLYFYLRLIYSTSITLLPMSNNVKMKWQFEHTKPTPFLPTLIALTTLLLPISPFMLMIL

Legend:
Assay in all cases: split reporter; split mDHFR protein complementation assay, dilution drop-test of diploid S. cerevisiae on SD agar with methotrexate, 30 °C, growth as colony intensity against the insert-less F1,2 control; ND2 variants fused to F3, partners fused to YFP-F1,2
[1] = target: ND5, YFP-F1,2 mDHFR fusion (human) (UniProt P03915)
[2] = target: ND4, YFP-F1,2 mDHFR fusion (human) (UniProt P03905)
[3] = target: NDUFC2, YFP-F1,2 mDHFR fusion (human) (UniProt O95298)
[4] = target: ND4L, YFP-F1,2 mDHFR fusion (human) (UniProt P03901)

Substance	binding [1]	binding [2]	binding [3]	binding [4]
ND2-I57M, F3 mDHFR fusion (from UniProt P03891 1-347)	binds	–	–	–
ND2 wild type (mtDNA-encoded complex I subunit ND2), F3 mDHFR fusion (from UniProt P03891 1-347)	binds	binds	binds	binds
ND2-N150D, F3 mDHFR fusion (from UniProt P03891 1-347)	binds	–	–	–
